Test results from patent publication US20220073586A1.
No constants are given. Whether binding was seen depends on the method and setting. Some binding calls cover weakened binding; strength is not graded here. Sequences can lack the tags named with a protein.

The chains behind the UniProt entries cited, without tags or fusion partners. Where a name states a change or a piece, a line headed by the entry shows the natural chain unless it says otherwise. Residues count along the entry.
UniProt Q9NZQ7: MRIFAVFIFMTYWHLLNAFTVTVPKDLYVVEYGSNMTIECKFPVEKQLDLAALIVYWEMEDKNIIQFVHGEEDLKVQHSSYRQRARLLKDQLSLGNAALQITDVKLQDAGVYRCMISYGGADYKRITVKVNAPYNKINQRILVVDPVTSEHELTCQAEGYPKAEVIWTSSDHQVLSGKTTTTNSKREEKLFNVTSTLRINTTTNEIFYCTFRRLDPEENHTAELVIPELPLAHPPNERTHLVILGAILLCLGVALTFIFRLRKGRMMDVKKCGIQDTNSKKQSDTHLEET
PD-L1 on MDA-MB-231 cells (PD-L1 high expressed human breast cancer cell line): residues 19-290 of Q9NZQ7

Legend:
[1] = biological target: PD-L1 antigen (coated on 96-well immunoplate) (UniProt Q9NZQ7); assay: plate antigen binding assay, coated PD-L1, anti-hFc-HRP
[2] = biological target: PD-L1 on MDA-MB-231 cells (PD-L1 high expressed human breast cancer cell line) (human) (UniProt Q9NZQ7); assay: FACS cell binding on PD-L1 positive cells (MDA-MB-231), detection with anti-hFc-AF488
[3] = biological target: PD-L1 molecules (Sino, Cat #10084-H08H) (UniProt Q9NZQ7); assay: SPR, Biacore T200
[4] = biological target: PD-L1 on MDA-MB-231 cells (PD-L1 high expressed human breast cancer cell line) (human) (UniProt Q9NZQ7); assay: FACS on MDA-MB-231 cells, anti-hFC-AF488 second antibody
[5] = biological target: PD-L1 antigen (coated on 96-well immunoplate) (UniProt Q9NZQ7); assay: single antigen ELISA, PD-L1 coated at 1 ug/mL, detection with anti-hFc-HRP

binding [1]: binds
binding [2]: binds
binding [3]: binds
binding [4]: binds
binding [5]: binds
B1: euPD-1 Fc fusion protein (Fc fusion)
chain: FLESPDRPWNAPTFSPALLLVAEGDNATFTCSFSNASESFHVVWHRESPSGQTDTLAAFPEDRSQPGQDHRFRVTRLPNGRDFHMSVVRAQRNDSGTYVCGVISLAPKIQIKESLRAELRVTERRAEVPTAHPSPSPRPAGQFQTLVVGGGGGSSNTKVDKRVEPKSCDKTHTCPPCPAPPVAGPSVFLFPPKPKDTLMISRTPEVTCVVVDVSHEDPEVQFNWYVDGVEVHNAKTKPREEQFNSTFRVVSVLTVVHQDWLNGKEYKCKVSNKGLPAPIEKTISKTKGQPREPQVYTLPPSREEMTKNQVSLTCLVKGFYPSDIAVEWESNGQPENNYKTTPPMLDSDGSFFLYSKLTVDKSRWQQGNVFSCSVMHEALHNHYTQKSLSLSPGK
